Source: PubChem BioAssay AID2685 (National Center for Advancing Translational Sciences (NCATS), 2010)
This is one part of the list. These are further read-outs of the screen, such as a control signal, another cell line or another target. No call is given for them. Compounds called inactive in the main read-out are mostly missing here. The note in brackets gives the kind of curve behind each potency; many fits are weak.

Test: qHTS Assay for Lipid Storage Modulators in Drosophila S3 Cells;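 on cell number change: cells counted by Cell Tracker Red CMTPX staining in the red channel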
Conditions: BODIPY lipid droplet fluorescence, 18-24 h; for cell number change: measured here: cell count max response, cells fed with added oleic acid
In short: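 Drosophila S3 cells loaded with oleic acid (400 uM, as added) and compounds at several concentrations; lipid droplets imaged by 488-nm laser-scanning cytometry, 500–530 nm intensity and object ratio to cell channel. Percent activity normalized to 20 uM Triacsin C.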

[1] = measured here: cell number channel AC50, cells fed with added oleic acid
[2] = measured here: lipid fluorescence (Fed channel) AC50, cells fed with added oleic acid

Row | SMILES | cell number change [%] | AC50 [1] | AC50 [2]
1 | CN(C)S(=O)(=O)c1ccc(NC(=O)CCNC(=O)c2ccc([N+](=O)[O-])cc2)cc1 | 24.3 | – | –
2 | c1ccc2c(-n3cnnn3)cccc2c1 | 10.8 | – | –
3 | O=c1ccc2c(-c3ccccc3)c3ccc(O)cc3oc-2c1 | -97.2 | 23.1 µM [falling, single point] | 16.4 µM [falling, partial curve]
4 | CCCOC(=O)c1ccc(NC(=O)C2C3C=CC(O3)C2C(=O)O)cc1 (configuration not stated) | – | – | 0.103 µM [rising, full curve, poor fit]
5 | CCOC(=O)c1[nH]ncc1CN1CCC(Cc2cccc(OC)c2)(C(=O)OCC)CC1 | -20 | – | 0.13 µM [falling, full curve, poor fit]
6 | COc1ccc(CCNC(=O)Cn2c(=O)n(-c3cc(F)ccc3F)c(=O)c3sccc32)cc1OC | 33.2 | 14.6 µM [rising, partial curve, poor fit] | 14.6 µM [rising, partial curve]
7 | CN(Cc1ccccc1)S(=O)(=O)c1ccc2c(c1)n(C)c(=O)n2C | 160 | 16.4 µM [rising, partial curve] | 18.4 µM [rising, partial curve]
8 | O=C1N/C(=C/c2ccc(N3CCOCC3)o2)C(=O)N1c1ccccc1 | -34.6 | 0.231 µM [falling, full curve, poor fit] | 7.31 µM [falling, partial curve]
9 | CCC(C)n1c(SCC(=O)NCc2ccco2)nnc1-c1cccc(S(=O)(=O)N2CCOCC2)c1 (configuration not stated) | 43.7 | 7.31 µM [rising, partial curve] | 0.82 µM [falling, full curve, poor fit]
10 | O=[N+]([O-])c1cc(S(=O)(=O)N2CCCC2)ccc1OCc1ccccc1 | -1.32 | – | –
11 | O=C(COC(=O)c1cc(S(=O)(=O)N2CCOCC2)ccc1O)NCCc1ccccc1 | 32.6 | 32.6 µM [rising, single point] | –
12 | Cc1cccc(N2C(=NC(=O)c3ccccc3)SC3CS(=O)(=O)CC32)c1 (configuration not stated) | -18.5 | – | –
13 | Cc1ccccc1NC(=O)COc1coc(CN2CCN(c3ccccc3)CC2)cc1=O | – | 0.58 µM [falling, single point] | –
14 | COc1ccc(NC(=O)CCCn2c(=S)[nH]c3ccccc3c2=O)cc1 | 51.5 | 29.1 µM [rising, single point] | –
15 | O=C1NN(c2ccccc2)C(=O)/C1=C/c1ccc(Sc2cccc3ccccc23)o1 | -18.2 | – | 32.6 µM [falling, partial curve]
16 | COCn1c(COc2ccccc2)nc2ccccc21 | 22.7 | – | –
17 | O=C(CSCSCC(=O)Nc1ccc2c(c1)OCO2)Nc1ccc2c(c1)OCO2 | 1.41 | – | –
18 | Cc1ccc(C(=O)NNC(=O)c2ccncc2)cc1[N+](=O)[O-] | 11.8 | – | 18.4 µM [rising, single point]
19 | COc1ccc(OCCOC(=O)Nc2ccccc2)cc1 | 31.5 | 7.31 µM [rising, partial curve] | –
20 | COc1ccc(CNC(=O)c2cc3c(s2)CS(=O)C3)cc1 (configuration not stated) | 11.7 | – | –

Row | SMILES | cell number change [%] | AC50 [1] | AC50 [2]
21 | CCCn1c(SC(C)C(=O)NCC2CCCO2)nc2cc(Cl)ccc2c1=O (configuration not stated) | 22.2 | 0.291 µM [rising, full curve, poor fit] | –
22 | CC1CCc2sc(C(=O)NCC3CCCO3)cc2C1 (configuration not stated) | -5.55 | – | 5.8 µM [falling, partial curve]
23 | Cc1ccc(NC(=O)C2CCN(C(=O)c3ccc(Cl)cc3)CC2)nc1 | 13.3 | – | 3.66 µM [rising, single point]
24 | CCOc1ccccc1OCCCC(=O)N(C)CC(=O)Nc1cc(C)ccc1C | – | – | 0.116 µM [rising, full curve, poor fit]
25 | NS(=O)(=O)c1ccc(NC(=O)c2cccc(N3C(=O)c4ccccc4C3=O)c2)cc1 | 15.3 | – | 0.206 µM [rising, full curve]
26 | CCc1nc2sc3ccccc3c(=O)c2c(=O)n1Cc1ccc(OC)cc1 | -19.1 | – | 29.1 µM [falling, single point]
27 | CC(OC(=O)CN1C(=O)c2ccccc2C1=O)C(=O)NC1CCCCC1 (configuration not stated) | -8.55 | – | 18.4 µM [falling, partial curve, poor fit]
28 | CCCc1[nH]n(-c2ccc(F)cc2)c(=O)c1C=Nc1ccc(C)cc1 | 33.4 | 32.6 µM [rising, single point] | –
29 | Cc1c(C(=O)OCC(=O)N2CC(=O)Nc3ccccc32)oc2ccccc12 | 31.5 | 5.8 µM [rising, full curve, poor fit] | 5.17 µM [rising, single point]
30 | COCCn1nnnc1C(c1ccccc1OC)N1CCN(C(=O)c2ccco2)CC1 (configuration not stated) | 21.6 | – | –
31 | O=C(CN1CCN(Cc2ccc(F)cc2)C1=O)NCc1cccs1 | -9.51 | – | 0.103 µM [falling, full curve, poor fit]
32 | O=C(c1sc2cc(F)ccc2c1Cl)N1CCN(c2ccccc2)CC1 | 30.8 | 4.11 µM [rising, partial curve, poor fit] | 0.326 µM [rising, full curve]
33 | Cn1c(=O)n(C)c(=O)n(CC(=O)N2CCCCC2)c1=O | -83.1 | 29.1 µM [falling, single point] | 29.1 µM [falling, single point]
34 | CCOC(=O)N1CCN(CC(=O)N2c3ccccc3CC2C)CC1 (configuration not stated) | -44.3 | 14.6 µM [falling, partial curve] | 13 µM [falling, partial curve]
35 | O=C1COc2ccc(C(=O)C[n+]3cccc(O)c3)cc2N1 | -36.2 | – | 29.1 µM [falling, single point]
36 | Cc1cccc(NC(=O)CNC(=O)c2cccs2)n1 | 21.5 | – | –
37 | CCc1noc(C)c1C(=O)OCC(=O)Nc1ncc(Cl)cc1Cl | 20.3 | – | 7.31 µM [rising, partial curve, poor fit]
38 | Cc1ccc(OC(C)C(=O)N(C)c2ccccc2)c([N+](=O)[O-])n1 (configuration not stated) | -4.01 | – | 7.31 µM [rising, partial curve]
39 | Cn1c(=O)c2c(nc(SCC(=O)c3cccs3)n2Cc2ccc(F)cc2)n(C)c1=O | 45.4 | 0.82 µM [rising, full curve] | 0.116 µM [falling, full curve, poor fit]
40 | O=C(NCCCN1CCCC1=O)c1cccc(Oc2ccccc2)c1 | -21.3 | – | –

Row | SMILES | cell number change [%] | AC50 [1] | AC50 [2]
41 | CC(=O)Nc1ccc(NC(=O)CCC(=O)OCC(=O)c2ccc(F)cc2)cc1 | -13.9 | – | –
42 | Cc1c(C)n(CC(O)CNc2ccccc2)c2ccccc12 (configuration not stated) | -31.2 | 16.4 µM [falling, single point] | 29.1 µM [falling, single point]
43 | Cc1nn2c(COc3ccc(NC(=O)c4ccccc4)cc3)nnc2c2ccccc12 | 1.36 | 6.51 µM [falling, single point] | 3.66 µM [rising, single point]
44 | Cn1c(=O)c2c(nc(N3CCOCC3)n2CCCNC2=NCCCCC2)n(C)c1=O | -24 | – | 0.259 µM [falling, full curve]
45 | COc1ccc(NC2CCCN(C(=O)c3ccccc3N3CCOCC3)C2)cc1OC (configuration not stated) | 4.46 | – | –
46 | Cc1cccc(OCC(=O)NC(=S)Nc2ccccc2N2CCOCC2)c1C | 7.54 | – | 6.51 µM [rising, single point]
47 | Cc1ccc(-n2nnnc2C(Cl)c2nnnn2-c2ccc(C)cc2)cc1 | -80.7 | 18.4 µM [falling, single point] | 29.1 µM [falling, single point]
48 | Cc1nc([N+](=O)[O-])cn1CC(=O)c1ccc(Cl)cc1 | -14.9 | 0.291 µM [rising, full curve, poor fit] | –
49 | CCNC(=O)C1CCCN1S(=O)(=O)c1ccc2ccccc2c1 (configuration not stated) | -3.97 | – | –
50 | O=C(COC(=O)c1cccnc1Cl)Nc1cc(S(=O)(=O)N2CCCCC2)ccc1Cl | 62.3 | 23.1 µM [rising, single point] | –
51 | CCOC(=O)c1c(C)[nH]c(N=Nc2ccc(C)cc2)c1C | -87.1 | 29.1 µM [falling, single point] | –
52 | CCOC(=O)C1=C(C)N=C2SC(C)C(=O)N2C1c1ccc(OC(C)=O)c(OCC)c1 (configuration not stated) | 75.1 | 16.4 µM [rising, partial curve] | –
53 | CCOC(=O)N/N=C1\CC(C)CC(C)(C)C1 (configuration not stated) | -32.7 | 0.0517 µM [falling, full curve, poor fit] | 29.1 µM [rising, single point]
54 | COCCCN1C(=O)C(=O)/C(=C(/O)c2ccc(OC)cc2)C12C(=O)N(C)c1ccccc12 (configuration not stated) | – | 0.092 µM [rising, full curve, poor fit] | 0.146 µM [rising, full curve, poor fit]
55 | Cc1ccc(SC(c2ccccc2)C(Cn2cncn2)C(=O)c2ccccc2)cc1 (configuration not stated) | 19.7 | – | 2.31 µM [rising, partial curve]
56 | Cc1ccc(CNC(=O)c2cccc(-n3cnnn3)c2)cc1 | -10.8 | – | 6.51 µM [falling, single point]
57 | CC1(C)CC(=O)c2c(O)cc(O)cc2O1 | 0.938 | – | –
58 | O=C(C/C=N\OCc1ccc(Cl)cc1Cl)Nc1ccccc1 | 7.33 | 0.651 µM [rising, full curve] | 0.651 µM [rising, partial curve, poor fit]
59 | Brc1ccc(-c2nnc3sc(CNCc4ccc5c(c4)OCO5)cn23)cc1 | – | – | 18.4 µM [rising, single point]
60 | C#CCOC(=O)c1ccc(-n2cncn2)nc1 | 31.2 | 0.731 µM [rising, full curve, poor fit] | –

From entry 41 up to 43, as listed above:
Row | SMILES | cell number change [%] | AC50 [1] | AC50 [2]
41 | CC(=O)Nc1ccc(NC(=O)CCC(=O)OCC(=O)c2ccc(F)cc2)cc1 | -13.9 | – | –
42 | Cc1c(C)n(CC(O)CNc2ccccc2)c2ccccc12 (configuration not stated) | -31.2 | 16.4 µM [falling, single point] | 29.1 µM [falling, single point]
43 | Cc1nn2c(COc3ccc(NC(=O)c4ccccc4)cc3)nnc2c2ccccc12 | 1.36 | 6.51 µM [falling, single point] | 3.66 µM [rising, single point]

Looked up above:
Under cell number change [%], CC(=O)Nc1ccc(NC(=O)CCC(=O)OCC(=O)c2ccc(F)cc2)cc1 has the entry -13.9
Under AC50 [1], CCOC(=O)c1c(C)[nH]c(N=Nc2ccc(C)cc2)c1C has the entry 29.1 µM [falling, single point]
